Source: article PMC4559962
No constants are given. Whether binding was seen depends on the method and setting. A result given as binding can be weak or reduced; the word gives no strength. Where a sequence is shown, tags or fusion partners need not be part of it.

Molecular target: T1, HA-Wss1 (recombinant, wild type) (S. cerevisiae) (UniProt P38838)
T1 sequence: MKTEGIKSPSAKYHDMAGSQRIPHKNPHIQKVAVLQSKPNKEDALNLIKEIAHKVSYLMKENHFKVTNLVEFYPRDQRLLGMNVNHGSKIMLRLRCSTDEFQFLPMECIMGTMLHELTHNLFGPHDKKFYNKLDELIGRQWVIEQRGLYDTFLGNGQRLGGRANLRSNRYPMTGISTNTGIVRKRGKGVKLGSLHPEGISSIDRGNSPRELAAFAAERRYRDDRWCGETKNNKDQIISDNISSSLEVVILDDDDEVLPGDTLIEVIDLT
Assay: pull-down; purified HA-Wss1 (full length or truncated) on anti-HA beads with purified His6-Cdc48, GST-Cdc48 or HF-Doa1 (full length or truncated); western blot; both purified

GST-Cdc48 N-terminus (truncated version) (S. cerevisiae) (domain or fragment)
binding: binds
